{"source": "PubChem BioAssay AID504764 (Drosophila RNAi Screening Center, 2011)", "test": "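Genes whose knock-down alters Notch-dependent transcription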 (primary screen)", "cells": "Drosophila Kc167 cells", "reagent": "long dsRNA against Drosophila genes", "timing": "about 5 days (4 days dsRNA, then 24 h after transfection)", "conditions": "transfection of constitutively active membrane-tethered Notch lacking the extracellular domain, read 24 h later", "measurement": "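Light from a Notch-responsive E(spl)m3 luciferase reporter under active Notch, with control-promoter and no-Notch reporter wells to normalise; raw counts from paired wells a and b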", "direction": "induced reporter light, run 1, well a and induced reporter light, run 1, well b: higher = more light from the Notch target reporter with active Notch; control promoter light, run 1, well a and control promoter light, run 1, well b: higher = more light from the viral control promoter (cell number, transfection, viability); uninduced reporter light, run 1, well a: higher = more light from the Notch target reporter without active Notch", "hit rule": "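Wells with low control signal or poorly matching duplicates excluded; duplicates averaged; per source plate, z beyond ±2 for induced/control log2 ratio or beyond ±1.8 for induced/uninduced marks a hit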", "meaning of the calls": "active = modifier hit (raised or lowered Notch signal); inactive = not a hit", "note": "In all, the deposit lists about 22,000 reagents; shown is a random part of those that have a named target and a result. Over the whole deposit, 403 (1.9%) were called active. 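Unnormalised raw counts per well; ratio z-scores behind the hit calls and whether each hit raises or lowers signal are not deposited.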 No sequences are given here. Not given: the amount of reagent."}
{"target gene": "CG7997", "DRSC id": "DRSC07052", "induced reporter light, run 1, well a": 1.21e5, "induced reporter light, run 1, well b": 1.13e5, "control promoter light, run 1, well a": 2.09e5, "control promoter light, run 1, well b": 1.98e5, "uninduced reporter light, run 1, well a": 8960, "outcome": "inactive"}
{"target gene": "CG12129", "DRSC id": "DRSC06105", "induced reporter light, run 1, well a": 1.75e5, "induced reporter light, run 1, well b": 1.44e5, "control promoter light, run 1, well a": 1.53e5, "control promoter light, run 1, well b": 1.56e5, "uninduced reporter light, run 1, well a": 15375, "outcome": "inactive"}
{"target gene": "CG42335", "DRSC id": "DRSC14597", "induced reporter light, run 1, well a": 1.94e5, "induced reporter light, run 1, well b": 1.40e5, "control promoter light, run 1, well a": 1.73e5, "control promoter light, run 1, well b": 1.50e5, "uninduced reporter light, run 1, well a": 12085, "outcome": "inactive"}
{"target gene": "CG42335", "DRSC id": "DRSC15892", "induced reporter light, run 1, well a": 1.87e5, "induced reporter light, run 1, well b": 1.74e5, "control promoter light, run 1, well a": 2.39e5, "control promoter light, run 1, well b": 2.33e5, "uninduced reporter light, run 1, well a": 14640, "outcome": "inactive"}
{"target gene": "CG13069", "DRSC id": "DRSC09952", "induced reporter light, run 1, well a": 2.54e5, "induced reporter light, run 1, well b": 2.17e5, "control promoter light, run 1, well a": 3.04e5, "control promoter light, run 1, well b": 2.40e5, "uninduced reporter light, run 1, well a": 10795, "outcome": "inactive"}
{"target gene": "Cpr76Ba (Cuticular protein 76Ba)", "DRSC id": "DRSC11060", "induced reporter light, run 1, well a": 1.21e5, "induced reporter light, run 1, well b": 93655, "control promoter light, run 1, well a": 1.05e5, "control promoter light, run 1, well b": 97430, "uninduced reporter light, run 1, well a": 8530, "outcome": "inactive"}
{"target gene": "CG17752", "DRSC id": "DRSC15262", "induced reporter light, run 1, well a": 1.83e5, "induced reporter light, run 1, well b": 1.62e5, "control promoter light, run 1, well a": 1.76e5, "control promoter light, run 1, well b": 1.87e5, "uninduced reporter light, run 1, well a": 12428, "outcome": "inactive"}
{"target gene": "CG13631", "DRSC id": "DRSC14632", "induced reporter light, run 1, well a": 1.75e5, "induced reporter light, run 1, well b": 1.86e5, "control promoter light, run 1, well a": 1.82e5, "control promoter light, run 1, well b": 2.16e5, "uninduced reporter light, run 1, well a": 13335, "outcome": "inactive"}
{"target gene": "CG2701", "DRSC id": "DRSC18590", "induced reporter light, run 1, well a": 1.77e5, "induced reporter light, run 1, well b": 1.63e5, "control promoter light, run 1, well a": 2.41e5, "control promoter light, run 1, well b": 2.29e5, "uninduced reporter light, run 1, well a": 11400, "outcome": "inactive"}
{"target gene": "CG10068", "DRSC id": "DRSC12508", "induced reporter light, run 1, well a": 1.24e5, "induced reporter light, run 1, well b": 1.10e5, "control promoter light, run 1, well a": 85085, "control promoter light, run 1, well b": 82710, "uninduced reporter light, run 1, well a": 7785, "outcome": "inactive"}
{"target gene": "kek2 (kekkon 2)", "DRSC id": "DRSC03552", "induced reporter light, run 1, well a": 1.18e5, "induced reporter light, run 1, well b": 1.55e5, "control promoter light, run 1, well a": 75875, "control promoter light, run 1, well b": 1.09e5, "uninduced reporter light, run 1, well a": 17180, "outcome": "inactive"}
{"target gene": "CG42329", "DRSC id": "DRSC00373", "induced reporter light, run 1, well a": 86870, "induced reporter light, run 1, well b": 93420, "control promoter light, run 1, well a": 85290, "control promoter light, run 1, well b": 41560, "uninduced reporter light, run 1, well a": 7040, "outcome": "inactive"}
{"target gene": "CG42329", "DRSC id": "DRSC00682", "induced reporter light, run 1, well a": 94290, "induced reporter light, run 1, well b": 1.10e5, "control promoter light, run 1, well a": 75365, "control promoter light, run 1, well b": 40195, "uninduced reporter light, run 1, well a": 9445, "outcome": "inactive"}
{"target gene": "CG13046", "DRSC id": "DRSC09927", "induced reporter light, run 1, well a": 2.02e5, "induced reporter light, run 1, well b": 2.29e5, "control promoter light, run 1, well a": 2.50e5, "control promoter light, run 1, well b": 2.42e5, "uninduced reporter light, run 1, well a": 10060, "outcome": "inactive"}
{"target gene": "CG6845", "DRSC id": "DRSC08576", "induced reporter light, run 1, well a": 1.17e5, "induced reporter light, run 1, well b": 1.36e5, "control promoter light, run 1, well a": 2.07e5, "control promoter light, run 1, well b": 2.26e5, "uninduced reporter light, run 1, well a": 10190, "outcome": "inactive"}
{"target gene": "fs(1)K10 (female sterile (1) K10)", "DRSC id": "DRSC18775", "induced reporter light, run 1, well a": 1.78e5, "induced reporter light, run 1, well b": 1.62e5, "control promoter light, run 1, well a": 1.52e5, "control promoter light, run 1, well b": 1.44e5, "uninduced reporter light, run 1, well a": 11090, "outcome": "inactive"}
{"target gene": "Swim (Secreted Wg-interacting molecule)", "DRSC id": "DRSC04334", "induced reporter light, run 1, well a": 1.80e5, "induced reporter light, run 1, well b": 1.59e5, "control promoter light, run 1, well a": 1.80e5, "control promoter light, run 1, well b": 1.98e5, "uninduced reporter light, run 1, well a": 15340, "outcome": "inactive"}
{"target gene": "Adgf-A (Adenosine deaminase-related growth factor A)", "DRSC id": "DRSC10566", "induced reporter light, run 1, well a": 88405, "induced reporter light, run 1, well b": 93110, "control promoter light, run 1, well a": 56020, "control promoter light, run 1, well b": 77235, "uninduced reporter light, run 1, well a": 7345, "outcome": "inactive"}

Taken from above:
CG7997 [DRSC07052], control promoter light, run 1, well b = 1.98e5
CG13046 [DRSC09927], control promoter light, run 1, well b: 2.42e5
